Results are given in words; binding and its absence hold for the method and conditions named.
Target: BLM^1206–1298, encoding the HRDC domain (human) (UniProt P54132)
Assay: BLI; biotinylated HRDC domain immobilised on streptavidin biosensors, RecA domains in solution, in the absence of nucleotide; 20-mM HEPES pH 7.5, 200-mM NaCl, 5% glycerol; 60-s windows; Octet RED384; both purified

By UniProt entry, the sequences of proteins in these tests, tags left out. Residues count along the entry.
BLM^636–1072, including the RecA domains (P54132, residues 636-1072): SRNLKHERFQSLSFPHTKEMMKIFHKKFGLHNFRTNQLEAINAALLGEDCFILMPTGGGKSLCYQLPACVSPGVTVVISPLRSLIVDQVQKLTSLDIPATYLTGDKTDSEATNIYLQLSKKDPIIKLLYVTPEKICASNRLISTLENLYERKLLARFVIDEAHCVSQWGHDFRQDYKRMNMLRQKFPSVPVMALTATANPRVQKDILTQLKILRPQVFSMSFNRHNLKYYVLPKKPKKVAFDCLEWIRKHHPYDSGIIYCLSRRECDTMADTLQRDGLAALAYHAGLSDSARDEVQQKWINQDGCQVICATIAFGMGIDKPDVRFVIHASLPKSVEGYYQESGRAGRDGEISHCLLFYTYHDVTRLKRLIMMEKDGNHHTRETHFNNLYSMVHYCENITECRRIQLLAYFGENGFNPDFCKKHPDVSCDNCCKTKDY
BLM^1206–1298, encoding the HRDC domain (P54132, residues 1206-1298): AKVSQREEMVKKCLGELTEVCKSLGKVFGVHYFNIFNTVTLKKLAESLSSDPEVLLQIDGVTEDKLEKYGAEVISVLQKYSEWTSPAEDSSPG

## BLM^636–1072, including the RecA domains (from UniProt P54132 636-1072) (domain or fragment)
  binding: no binding (condition: in the absence of nucleotide)

Source: publication PMC4446433
